Test results taken from publication PMC6745036.
No constants are given. Whether binding was seen depends on the method and setting. In cells and extracts the contact can be indirect. Some results given as binding are weak or reduced against the parent protein; the word gives no strength.

By UniProt entry, the sequences of proteins in these tests, tags left out.
UniProt Q9R210: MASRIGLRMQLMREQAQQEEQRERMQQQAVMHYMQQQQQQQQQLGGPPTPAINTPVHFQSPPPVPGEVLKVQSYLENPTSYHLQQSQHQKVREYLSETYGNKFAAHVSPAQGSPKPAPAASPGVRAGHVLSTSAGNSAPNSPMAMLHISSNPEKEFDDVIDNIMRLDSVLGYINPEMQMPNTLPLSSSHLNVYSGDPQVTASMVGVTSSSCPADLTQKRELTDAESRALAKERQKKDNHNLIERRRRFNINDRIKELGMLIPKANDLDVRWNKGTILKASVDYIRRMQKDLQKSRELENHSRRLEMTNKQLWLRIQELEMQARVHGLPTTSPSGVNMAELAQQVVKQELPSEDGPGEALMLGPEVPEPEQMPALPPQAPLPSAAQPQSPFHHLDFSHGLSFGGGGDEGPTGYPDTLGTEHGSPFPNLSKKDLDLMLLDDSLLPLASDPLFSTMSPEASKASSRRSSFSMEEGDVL

Biological target: T1, CARM1 (mouse (endogenous in C57BL/6 skin flap tissue)) (UniProt Q9WVG6)
T1 sequence: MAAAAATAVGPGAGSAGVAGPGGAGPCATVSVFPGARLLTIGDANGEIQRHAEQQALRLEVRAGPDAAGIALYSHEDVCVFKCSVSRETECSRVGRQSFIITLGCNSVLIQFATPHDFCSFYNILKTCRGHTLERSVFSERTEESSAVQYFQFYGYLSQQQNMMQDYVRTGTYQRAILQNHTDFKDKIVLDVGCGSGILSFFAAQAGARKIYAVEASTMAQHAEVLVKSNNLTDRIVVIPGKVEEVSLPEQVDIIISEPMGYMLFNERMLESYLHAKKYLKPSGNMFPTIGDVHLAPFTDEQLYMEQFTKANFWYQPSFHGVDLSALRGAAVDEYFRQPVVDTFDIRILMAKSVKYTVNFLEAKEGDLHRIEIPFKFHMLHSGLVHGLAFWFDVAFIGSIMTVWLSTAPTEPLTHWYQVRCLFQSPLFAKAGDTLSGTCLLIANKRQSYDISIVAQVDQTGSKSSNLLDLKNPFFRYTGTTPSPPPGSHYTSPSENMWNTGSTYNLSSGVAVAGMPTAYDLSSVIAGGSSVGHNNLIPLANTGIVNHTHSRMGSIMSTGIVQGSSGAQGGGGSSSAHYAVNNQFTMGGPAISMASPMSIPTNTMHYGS
Assay: co-IP; Pierce Co-Immunoprecipitation Kit; antibodies immobilised on coupling resin, mixed with flap lysate at 4 degrees Celsius overnight, eluted proteins western blotted; skin flaps of mice of the Control, SUC (sucrose) and TRE (trehalose) groups, POD 7

Question: Which binding does the source give for TFEB (from UniProt Q9R210 1-475) here?
Answer: The binding was “binds”.
